Where two headings read alike, the source gives them in different places. No constants are given. Whether binding was seen depends on the method and setting. Binding seen in cells or lysates may run through a third protein. Some binding calls cover weakened binding; strength is not graded here. Tags and fused reporters may be left off the sequences shown. Each block holds one molecule with its values, some of them ahead of it.
Experiments:
Assay in all cases: co-IP; HEK-293T cells co-transfected with the two plasmids, lysed after 24 h (50 mM HEPES pH 7.4, 150 mM NaCl, 2 mM MgCl2, 1 mM EGTA, 0.1% Triton X-100); cleared lysate incubated with FLAG beads overnight at 4 °C, washed three times; western blot with anti-FLAG and anti-GFP
FLAG-TMEM232 (mouse) [1] = target: T1, FLAG-TMEM232 (mouse) (UniProt Q5K6N0)
T1 sequence: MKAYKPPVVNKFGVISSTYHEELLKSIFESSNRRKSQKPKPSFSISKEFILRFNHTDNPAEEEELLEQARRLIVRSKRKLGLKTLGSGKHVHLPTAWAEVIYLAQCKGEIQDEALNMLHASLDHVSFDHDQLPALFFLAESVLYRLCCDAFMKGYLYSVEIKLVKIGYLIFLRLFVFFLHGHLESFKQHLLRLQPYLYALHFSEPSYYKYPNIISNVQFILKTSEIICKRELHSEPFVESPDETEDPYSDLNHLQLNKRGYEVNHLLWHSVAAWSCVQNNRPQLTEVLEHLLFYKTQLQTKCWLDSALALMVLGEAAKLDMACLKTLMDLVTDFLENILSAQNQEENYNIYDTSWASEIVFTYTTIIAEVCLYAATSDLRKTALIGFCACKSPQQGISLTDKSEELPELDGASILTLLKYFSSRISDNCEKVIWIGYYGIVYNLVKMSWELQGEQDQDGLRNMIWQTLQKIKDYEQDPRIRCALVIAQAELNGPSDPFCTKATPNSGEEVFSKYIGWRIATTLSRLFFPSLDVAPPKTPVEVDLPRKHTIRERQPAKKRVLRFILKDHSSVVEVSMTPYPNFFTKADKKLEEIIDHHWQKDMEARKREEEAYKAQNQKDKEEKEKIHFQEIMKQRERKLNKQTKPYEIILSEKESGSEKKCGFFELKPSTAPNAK

The chains behind the UniProt entries cited, without tags or fusion partners.
UniProt Q8K341: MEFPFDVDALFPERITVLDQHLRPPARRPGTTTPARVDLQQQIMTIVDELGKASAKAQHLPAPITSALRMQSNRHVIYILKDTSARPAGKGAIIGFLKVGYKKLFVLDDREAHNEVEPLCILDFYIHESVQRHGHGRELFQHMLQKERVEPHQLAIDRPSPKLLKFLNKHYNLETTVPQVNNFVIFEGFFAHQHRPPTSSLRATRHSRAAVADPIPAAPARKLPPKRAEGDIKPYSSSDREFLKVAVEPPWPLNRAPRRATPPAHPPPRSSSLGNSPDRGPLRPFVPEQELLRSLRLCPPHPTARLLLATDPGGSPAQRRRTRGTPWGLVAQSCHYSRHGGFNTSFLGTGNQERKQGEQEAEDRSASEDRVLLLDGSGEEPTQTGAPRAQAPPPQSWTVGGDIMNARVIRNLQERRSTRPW
UniProt Q8CDJ3: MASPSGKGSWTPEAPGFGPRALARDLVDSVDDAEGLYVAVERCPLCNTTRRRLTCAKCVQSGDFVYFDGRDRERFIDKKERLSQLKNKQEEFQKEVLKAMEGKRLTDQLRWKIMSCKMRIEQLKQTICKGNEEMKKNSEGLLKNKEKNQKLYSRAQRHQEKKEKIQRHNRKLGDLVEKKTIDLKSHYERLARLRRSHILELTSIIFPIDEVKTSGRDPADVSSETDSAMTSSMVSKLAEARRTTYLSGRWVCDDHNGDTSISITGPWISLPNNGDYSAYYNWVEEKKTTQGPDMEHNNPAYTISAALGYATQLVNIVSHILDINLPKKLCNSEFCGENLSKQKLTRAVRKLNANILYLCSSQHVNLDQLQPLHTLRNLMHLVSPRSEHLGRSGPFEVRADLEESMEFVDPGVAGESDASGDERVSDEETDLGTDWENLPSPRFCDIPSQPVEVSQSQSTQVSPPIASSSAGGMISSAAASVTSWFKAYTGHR

[2] = target: T2, VDAC3 (Outer Mitochondrial Membrane Protein Porin 3) (not stated (human or mouse cDNA cloned)) (UniProt Q60931)
T2 sequence: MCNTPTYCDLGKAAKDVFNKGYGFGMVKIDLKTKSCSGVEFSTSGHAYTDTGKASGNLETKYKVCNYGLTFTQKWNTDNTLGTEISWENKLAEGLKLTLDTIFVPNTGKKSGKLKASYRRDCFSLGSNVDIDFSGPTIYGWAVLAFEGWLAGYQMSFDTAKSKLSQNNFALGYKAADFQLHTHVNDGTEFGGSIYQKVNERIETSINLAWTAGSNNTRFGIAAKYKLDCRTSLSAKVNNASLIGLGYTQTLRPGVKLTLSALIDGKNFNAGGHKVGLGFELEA

FLAG-TMEM232 (mouse) [3] = target: T1, FLAG-TMEM232 (mouse); remark: listed apart in the source

binding (FLAG-TMEM232 (mouse) [1]): binds
Molecule: ATAT1 (Alpha α-Tubulin Acetyltransferase 1) (from UniProt Q8K341 1-421) (enzyme)

binding (FLAG-TMEM232 (mouse) [1]): binds
Molecule: ATG14 (from UniProt Q8CDJ3 1-492)

binding [2]: binds
binding (FLAG-TMEM232 (mouse) [3]): binds
B1: GFP-SEPTIN7 (protein, UniProt O55131 1-436)
chain: MSVSARSAAAEERSVNCGTMAQPKNLEGYVGFANLPNQVYRKSVKRGFEFTLMVVGESGLGKSTLINSLFLTDLYSPEYPGPSHRIKKTVQVEQSKVLIKEGGVQLLLTIVDTPGFGDAVDNSNCWQPVIDYIDSKFEDYLNAESRVNRRQMPDNRVQCCLYFIAPSGHGLKPLDIEFMKRLHEKVNIIPLIAKADTLTPEECQQFKKQIMKEIQEHKIKIYEFPETDDEEENKLVKKIKDRLPLAVVGSNTIIEVNGKRVRGRQYPWGVAEVENGEHCDFTILRNMLIRTHMQDLKDVTNNVHYENYRSRKLAAVTYNGVDNNKNKGQLTKSPLAQMEEERREHVAKMKKMEMEMEQVFEMKVKEKVQKLKDSEAELQRRHEQMKKNLEAQHKELEEKRRQFEEEKANWEAQQRILEQQNSSRTLEKNKKKGKIF

binding [2]: binds
binding (FLAG-TMEM232 (mouse) [3]): binds
B2: GFP-SEPTIN12 (protein, UniProt A0A2R8VJU7 1-357)
chain: MDERRSPSPCSSRPSSPRTPPNEMFGPVGIEAVLDQLRIKAMKTGFEFNIMVVGQSGLGKSTMVNTLFKSKVWQSTEPNLDVPMPQTLELHSVTHVIEEKGLKLKLTVTDTPGFGDQINNDKCWDPILSYINQQYEQYLQEELLITRQRHIPDTRVHCCVYFVPPTGHCLRPLDIEFLRRLCRTVNVVPVIARADSLTIEERDAFRSRIQQNLKTHCIDVYPQKCFDEDVNDRLLNSKIREQIPFAVVGADREHIVNGRCVLGRKTKWGIIEVENMAHCEFLLLRDLLIRSHLQDLKDITHNVHYENYRVLRLNESHVLPRGPGWVNLAPVSPGQLMAPGPGKVRKRANKDTKDEEC

binding (FLAG-TMEM232 (mouse) [3]): binds
B3: GFP-SEPTIN4 (protein, UniProt P28661 1-478)
chain: MDHSLGWQGNSVPEDGTEAGIKHFLEDSSDDAELSKFVKDFPGSEPYHSAESKTRVARPQILEPRPQSPDLCDDDVEFRGSLWPQPSDSQQYFSAPAPLSPSSRPRSPWGKLDPYDSSEDDKEYVGFATLPNQVHRKSVKKGFDFTLMVAGESGLGKSTLVNSLFLTDLYRDRKLLGAEERIMQTVEITKHAVDIEEKGVRLRLTIVDTPGFGDAVNNTECWKPVAEYIDQQFEQYFRDESGLNRKNIQDNRVHCCLYFISPFGHGLRPLDVEFMKALHQRVNIVPILAKADTLTPPEVDRKKCKIREEIEHFGIKIYQFPDCDSDEDEDFKLQDQALKESIPFAVIGSNTVVEARGRRVRGRLYPWGIVEVENPGHCDFVKLRTMLVRTHMQDLKDVTRETHYENYRAQCIQSMTRLVVKERNRNKLTRESGTDFPIPAVPPGTDPETEKLIREKDEELRRMQEMLHKIQRQMKETH

binding (FLAG-TMEM232 (mouse) [3]): binds
B4: GFP-SEPTIN6 (protein, UniProt Q9R1T4 1-434)
chain: MAAADIARQVGEDCRTVPLAGHVGFDSLPDQLVNKSVSQGFCFNILCVGETGLGKSTLMDTLFNTKFEGEPATHTQPGVQLQSNTYDLQESNVGLKLTIVSTVGFGDQINKEDSYKPIVEFIDAQFEAYLQEELKIRRVLHSYHDSRIHVCLYFIAPTGHSLKSLDLVTMKKLDSKVNIIPVIAKSDAISKSELAKFKIKITSELVSNGVQIYQFPTDDESVSEINGTMNAHLPFAVVGSTEEVKIGNKMMRARQYPWGTVQVENEAHCDFVKLREMLIRVNMEDLREQTHARHYELYRRCKLEEMGFKDTDPDSKPFSLQETYEAKRNEFLGELQKKEEEMRQMFVQRVKEKEAELKEAEKELHEKFDRLKKLHQEEKKKLEDKKKCLDEEMNAFKQRKAAAELLQSQGSQAGGSQTLKRDKEKKNNPWLCIE

binding (FLAG-TMEM232 (mouse) [3]): binds
B5: GFP-SEPTIN11 (protein, UniProt Q8C1B7 1-431)
chain: MAVAVGRPSNEELRNLSLSGHVGFDSLPDQLVNKSTSQGFCFNILCVGETGIGKSTLMDTLFNTKFESDPATHNEPGVRLKARSYELQESNVRLKLTIVDTVGFGDQINKDDSYKPIVEYIDAQFEAYLQEELKIKRSLFNYHDTRIHACLYFIAPTGHSLKSLDLVTMKKLDSKVNIIPIIAKADTIAKNELHKFKSKIMSELVSNGVQIYQFPTDEETVAEINATMSVHLPFAVVGSTEEVKIGNKMAKARQYPWGVVQVENENHCDFVKLREMLIRVNMEDLREQTHTRHYELYRRCKLEEMGFKDTDPDSKPFSLQETYEAKRNEFLGELQKKEEEMRQMFVMRVKEKEAELKEAEKELHEKFDLLKRTHQEEKKKVEDKKKELEEEVSNFQKKKAAAQLLQSQAQQSGAQQTKKDKDKKNPWLCTE

binding [2]: binds
binding (FLAG-TMEM232 (mouse) [3]): binds
B6: GFP-SEPTIN2 (protein, UniProt P42208 1-361)
chain: MSKQQPTQFINPETPGYVGFANLPNQVHRKSVKKGFEFTLMVVGESGLGKSTLINSLFLTDLYPERIIPGAAEKIERTVQIEASTVEIEERGVKLRLTVVDTPGYGDAINCRDCFKTIISYIDEQFERYLHDESGLNRRHIIDNRVHCCFYFISPFGHGLKPLDVAFMKAIHNKVNIVPVIAKADTLTLKERERLKKRILDEIEEHSIKIYHLPDAESDEDEDFKEQTRLLKASIPFSVVGSNQLIEAKGKKVRGRLYPWGVVEVENPEHNDFLKLRTMLITHMQDLQEVTQDLHYENFRSERLKRGGRKVENEDMNKDQILLEKEAELRRMQEMIARMQAQMQMQMQGGDSDSGALGQHV

binding (FLAG-TMEM232 (mouse) [3]): binds
B7: GFP-SEPTIN14 (protein, UniProt Q9DA97 1-430)
chain: MAEKPTNTSVPIPGSEDPQKENIRCLSTLGHFGFECLPTQLVNKSIQKGFSFNILCVGETGIGKTTLINTLFNTNLKETKSSHFYSKVGLTVKTYELLERNIPLRLTVVKTVGYGDQINKEASYQPVVDYLDAQFEAYLQEELKIKRSLADYHDSRIHVCLYFITPTGHSLKSLDLLTMKSIDRRVNIIPLIAKADSLSKNDLQRFKNNIMSELNSNGIQIYQFQVDDEASAQVNSSGLLPFAVVGSMEEVKVGKRMVRGRHYPWGVLQEVENENHCDFVKLRDLLLSTNMEDLKDQTHTQHYECYRSNRLQKLGFSDTGPDNRPVSFQEMYEAKRREFHNQCQKEEEELKQTFMQRVKEKELTFKDAEKELQDKFEHLKRIQQEEILKLEEERRKLEEQIIDFYKMKAASESAQAQVCTNIKKDKDRKK
